In all, about 2,800 compounds went through this assay and fewer than 10 were called active. Another 7% or so got no clear call; they are omitted. Calls follow the shape of the dose curve; as a rule, active = well fitted inhibition curve with a large enough effect; inconclusive = small, poorly fitted or top-dose-only effect; inactive = no such curve, though single readings can be large or run the other way. Some of the results follow.
Target: Metallo-beta-lactamase type 2 (Klebsiella pneumoniae) (UniProt C7C422)
Experiment: qHTS to identify inhibitors of the New Delhi Metallo-beta-lactamase (NDM): Nitrocefin screen against the machine-based learning selections. Also: % of control where 0% means no effect.
Settings: NDM-1 enzyme, nitrocefin hydrolysis, absorbance 485 nm; activity, negative = inhibition: at the top concentration
Method in brief: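 Hydrolysis by 2 nM NDM-1 was followed by absorbance after >30 min compound preincubation in HEPES pH 7.0 buffer with 1 uM Zn2SO4. For nitrocefin (16.7 uM, 15 min, 485 nm) and meropenem (50 uM, 30 min, 300 nm), each substrate ran on separate plates.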

Amino acid sequences for entries named in this document (tags omitted). A change or cut given only in a name is not applied to a line headed by its entry.
UniProt C7C422: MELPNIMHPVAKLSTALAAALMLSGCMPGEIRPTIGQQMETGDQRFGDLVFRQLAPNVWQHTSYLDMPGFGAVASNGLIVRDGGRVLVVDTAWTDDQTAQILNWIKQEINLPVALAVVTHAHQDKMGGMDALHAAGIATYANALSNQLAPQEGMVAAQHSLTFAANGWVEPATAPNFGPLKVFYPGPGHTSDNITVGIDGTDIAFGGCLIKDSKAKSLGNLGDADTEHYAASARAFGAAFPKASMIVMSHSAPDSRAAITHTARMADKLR

activity, negative = inhibition, inactive:
c1ccc(CNc2ncc(CN3CCC4(CCNCC4)CC3)cn2)cc1 -7.7%, CNc1ccc(OC2CCN(C(=O)CCc3nc4ccccc4[nH]3)C2)nc1 (stereo not drawn) 1.82%, Cn1cccc1C(=O)N1CC[C@H](NC(=O)NC2CCCCC2)[C@H]1C(=O)N1CCC[C@@H]1C(N)=O -1.53%, O=C(Cc1ccc(N(Cc2ccc(F)cc2)C(=O)c2ccco2)cc1)NCc1ccc(F)cc1 -6.09%, CCOc1ccccc1NC(=O)N1C[C@H](Oc2ccccc2)C[C@@H]1C(=O)NCCOC 2.31%, CN[C@@H](CO)C(=O)NCc1nc(-c2cccc(F)c2)c(-c2ccccn2)[nH]1 2.6%, COc1ccc(-c2nnc3n2CCN(C(=O)C(C)(C)C)C3)cc1 6.95% [at 57.5 µM], CC1CCN(C(=O)c2ccccc2OCC2CCCN(C(=O)c3ccncc3)C2)CC1 (stereo not drawn) 2.57%, COC(=O)C(=O)N1CC[C@@H]2[C@H]1C(=O)N(C(C)C)C(=O)N2Cc1cccc(F)c1 -1.89% [at 57.5 µM], CN1C[C@@H](NS(C)(=O)=O)C[C@H]1c1nc(-c2ccc(Cl)cc2)no1 0.0064% [at 57.5 µM], O=C(NC[C@H]1O[C@@H]2C[C@@H](CC(=O)N3CCC(F)(F)C3)O[C@@H]2[C@@H]1O)NC1CCC1 -1.33% [at 57.5 µM], O=C(COc1ccccc1)Nc1ccc([C@@H](O)[C@H]2COCC(=O)N2Cc2ccccc2F)cc1 1.43%, COc1ccccc1C(O)c1nc(Nc2ccncc2)n[nH]1 (stereo not drawn) -8.6% [at 57.5 µM], O=C(NC[C@H]1COCc2nc3ccccc3n21)c1cccnc1 1.75% [at 57.5 µM], O=c1cc(-c2cccnc2)oc2c(-c3cccc(CO)c3)nccc12 8.02% [at 57.5 µM], CC(C)CN1C(=O)COC[C@@H]1[C@H](O)c1ccc(NC(=O)c2ccco2)cc1 6.73% [at 57.5 µM], Cc1cccc(-c2ccc3c(c2)C(=O)N2C[C@H](O)C[C@H]2C(=O)N3)c1C -7.47% [at 57.5 µM], O=C(NC1CCCN(CCc2ccccc2)C1)C1(Cn2cccn2)CC1 (stereo not drawn) 1.44%, CC(=O)N1CC[C@H](c2nc3ccc(C#N)cc3[nH]2)C1 4.92% [at 76.7 µM], C[C@@H]1C(=O)O[C@H]2[C@H]1CC[C@@]1(C)Cc3sc(NS(=O)(=O)c4ccc(Cl)cc4)nc3[C@@H](C)[C@H]21 -2.77%, CNC(=O)[C@@H]1C[C@H](Oc2cccnc2)CN1C(=O)c1ccc(OC)nc1 0.401%, C[S+](=O)([O-])c1cccc(Nc2n[nH]c(C(O)c3ccccc3)n2)c1 (stereo not drawn) -3.79% [at 57.5 µM], O=C(O)Cn1ccc2cc(OCc3cccc(-c4ccccc4O)c3)cnc21 -5.4% [at 57.5 µM], COCc1cn(C[C@H]2C[C@@H](NS(=O)(=O)c3ccccc3)[C@H](O)[C@@H]2O)nn1 -3.02% [at 57.5 µM], O=C(N[C@H]1CCN2C(=O)c3ccc(Cl)cc3NC(=O)[C@H]12)c1cccs1 1.41% [at 57.5 µM], CCN1C(=O)Cc2cc(C(=O)NCc3cc(OC)ccc3OC)ccc21 -0.713%, COc1ccc(-c2ccc3ncc(Nc4ccc(C(N)=O)cc4)n3n2)cn1 -8.61% [at 57.5 µM], COc1ccc(CN2CCC[C@H]2c2nc(-c3ccc(N(C)C)nc3)no2)c(O)c1 0.0487% [at 57.5 µM], CC(=O)N1CCC(N[C@@H]2CO[C@H](CNC(=O)c3ccccc3)[C@H]2O)CC1 3.48% [at 57.5 µM], Oc1cccc(-c2cc(-c3ccncc3)c3cncn3c2)c1 -12.6% [at 76.7 µM], COc1cccc(NC(=O)N2CCN3C(=O)N(Cc4ccc(C)cc4)C[C@H]3C2)c1 1.56% [at 57.5 µM], CN(C)CCCNC(=O)C1CCCN(S(=O)(=O)c2ccccc2)CCC(=O)NCC1 (stereo not drawn) 3.76%, C[C@@H]1CN(C(=O)c2cccc(-c3ncc[nH]3)c2)CC[C@@]1(O)C1CCOCC1 -13.6%, COc1cccc(-c2cccc(CCOc3cnc4c(ccn4CC(=O)O)c3)c2)c1 -1.17% [at 57.5 µM], COc1ccccc1C(=O)Nc1ccnn1C1CCN(C(=O)CCN)CC1 162%, CCOC(=O)C1CCN(C(=O)c2ccc3c(c2)N(CC)C2CCCCCN2C3=O)CC1 (stereo not drawn) 1.67%, CC1=C[C@@H](CN2CCN(CCO)CC2)[C@H](C(C)C)C[C@H]1Cc1nnc(-c2ccccc2F)o1 0.709%, CC(=O)N1CCCCC1c1nc(-c2ccccc2)n[nH]1 (stereo not drawn) -14.9%, O=C(Cc1ccc(Cl)cc1)N1CCC([C@@H]2CNC[C@H]2CO)CC1 -11.5%, COC[C@H]1CCCN1Cc1nc(C2(O)CCN(Cc3ccccc3C(F)(F)F)CC2)cs1 3.93%, C[C@@H](NC(=O)N1CCOC[C@H]1c1ncc(-c2ccc(F)cc2)[nH]1)c1ccccc1 6.54% [at 57.5 µM], C=CCN(C)C(=O)C[C@@H]1c2nc(NC(=O)c3cccs3)sc2C[C@@H]2[C@](C)(CO)[C@H](O)CC[C@]21C 7.87%, COc1cccc(NC(=O)N[C@H](C)c2onc(-c3ccc(F)cc3)c2C(=O)O)c1 -18.1% [at 57.5 µM], COC(=O)C1=CN(CC(=O)NCc2cccc(OC)c2)S(=O)(=O)N=C1C -0.101%, CC(C)C[C@@H]1N[C@H](C(=O)N2CCC(O)(c3ccccc3)CC2)Cc2cn(C)c3cccc1c23 -1.88%, COc1ccc([C@H]2C[C@@H](O)[C@@H](O)[C@@H]2NC(=O)c2cc3ccccc3s2)cc1 -1.9% [at 57.5 µM], CC(C)(C)CC(=O)N1CC[C@H]2CC(=O)N(Cc3cccnc3)CC[C@H]2C1 2.57% [at 57.5 µM], O=C(O)c1cccc(CN2CC(CNc3ccccc3)C3(C2)CN(c2ccccc2)C3)c1 (stereo not drawn) -5.65% [at 57.5 µM], COc1ccc(CNC[C@H]2COCc3nc4cc(F)ccc4n32)cn1 5.58% [at 57.5 µM], CC(=O)N1CCC(NC[C@H]2COCc3nc4ccc(C)cc4n32)CC1 0.467% [at 57.5 µM], CCc1nc(C)c(C(=O)N2CCC(c3[nH]ncc3-c3ccccc3C)CC2)o1 -1.6%, COc1ccc(-c2cnc(Nc3cccc(N[S+](C)(=O)[O-])c3)c3c2CCO3)cn1 4.16% [at 57.5 µM], O=C(N[C@@H]1COCC[C@H]1OCc1ccccn1)c1cnc(C2CC2)nc1 -0.82%, O=C(c1ccc(Cn2cccn2)o1)N1CCCC2(CCC(=O)N(C3CC3)C2)C1 (stereo not drawn) -4.73%, Cc1oc(C(O)c2ccccc2)nc1C(=O)Nc1ccncc1 (stereo not drawn) 1.71% [at 57.5 µM], CCOCCn1nc(C)cc1C(=O)N1C[C@@H](C)[C@](O)(C2CC2)C1 -0.533%, CC1(CCCCc2ccccc2)COc2ccc(C(=O)Nc3cccnc3)cc2N1 (stereo not drawn) 3.47% [at 57.5 µM], NCc1cc(NC(=O)c2ccccn2)cc(C(=O)N2CC[C@H]3CNC[C@H]32)c1 -3.78%, Cc1cccc(CN2CCCC3(CCN(Cc4cccc(O)c4)C3)C2)c1 (stereo not drawn) 4.09%, O=C(Cc1c[nH]c2ncc(-c3ccccc3)cc12)NC1CCOCC1 5.95% [at 57.5 µM], CSCC(=O)N[C@H]1CCN2C(=O)c3cc(-c4ccccc4F)ccc3NC(=O)[C@H]12 3.31% [at 57.5 µM], COc1ccc([C@@H](NC(=O)c2ccc3cccc(F)c3n2)C2CC(O)C2)cn1 (stereo partly drawn) 6.06%, COc1ccc2c(c1)CCN=C2C[C@H]1CN(C(=O)c2cccs2)CC[C@H]1CC(=O)O -6.85% [at 57.5 µM], COc1ccc(C(=O)Nc2nc3c(s2)C[C@@H]2[C@](C)(CO)[C@H](O)CC[C@@]2(C)[C@@H]3CC(=O)NC2CCCC2)cc1 -14.1%, CN1CCC(NC[C@H]2O[C@@H](CO)[C@@H](O)[C@H]2N2CCN(c3ncccn3)CC2)CC1 -19.5%, CN(Cc1ccccc1)Cc1cn([C@H]2CO[C@H]3[C@@H]2OC[C@@H]3NCC2CCCCC2)nn1 2.96% [at 57.5 µM], COc1c(F)cccc1C(=O)N1CCc2onc(-c3ccccc3F)c2C1 2.21%, COC(=O)[C@H](Cc1ccc(OC)cc1)NC(=O)[C@H]1CN(C(=O)c2cccnc2)CCN1S(C)(=O)=O 13.5%, COc1cccc(N2CCN(C(=O)c3cn4ccnc(-c5ccccc5)c4n3)CC2)c1 21.4%, Fc1ccc(NC(=S)N[C@H]2CO[C@H]3[C@@H]2OC[C@@H]3n2nnnc2-c2ccc3c(c2)OCO3)cc1 -4.19%, Cc1noc2c(-c3cccnc3NCc3cnccn3)cc(-c3ccccc3)nc12 7.57% [at 57.5 µM], O=C(NCc1nc(-c2ncccn2)no1)C1CC2(CCNCC2)CN1 (stereo not drawn) -16.6%, COc1ccc(C[C@H](NC(=O)C2=C[C@@H](NC(=O)CSCC(=O)O)[C@@H](O)[C@H](O)C2)C(N)=O)cc1 -4.16%, CSCCCN1CCC(Oc2ccc3ncccc3c2)(C(=O)O)CC1 -6.55%, Cc1cc2c(cc1C(=O)N1CCC(O)(C(=O)O)CC1)OCCO2 -5.86%, CC1(C(=O)NCc2cccnc2)COCc2cnc(Nc3ccccc3)nc21 (stereo not drawn) -5.85% [at 57.5 µM], CS(=O)(=O)N[C@H]1C[C@H]2C(=O)Nc3ccc(-c4cccc(C(F)(F)F)c4)cc3C(=O)N2C1 -5.61%, OC1(CNCc2nc(-c3ccncc3)n[nH]2)CNCCOC1 (stereo not drawn) -6.58%, CC(C)N1CC[C@@H]2[C@H]1C(=O)NC[C@H](CCC(=O)N1CCC(O)CC1)N2C -0.938% [at 57.5 µM], O=C(NC[C@H]1Cn2ccnc2CO1)C1CCCC1 -0.411% [at 76.7 µM], Fc1ccccc1Nc1cnc2ccc(-c3ccccc3)nn12 -15% [at 57.5 µM], CC(C)C[C@@H]1N[C@H](C(=O)NCc2ccccn2)Cc2c[nH]c3cccc1c23 -9.86% [at 57.5 µM], CCNC(=O)c1cccnc1OC1CCN(C(=O)CC)C1 (stereo not drawn) 0.709%, O=C(CC1CCCCC1)N1CCC2(CC1)NC(=O)N(c1ccc(F)cc1)N2 2.35%, CC1=C[C@@H](CNC(=O)NC2CCCCC2)[C@H](C(C)C)C[C@H]1Cc1nc2ccc(C)cc2[nH]1 3.34% [at 57.5 µM], CC(=O)Nc1cccc(-c2ccc3c(n2)c(=O)ncn3Cc2ccccc2)c1 0.433% [at 57.5 µM], COc1cccc(NC(=O)N[C@H]2[C@H](O)[C@@H](N3CCN(c4ccccc4)CC3)[C@@H]3OC[C@H]2O3)c1 -5.21%, CN1C(=O)CCC2(CNC(=O)c3ccco3)CCC=C12 (stereo not drawn) -7.33%, COc1cccc(CN2CCNc3cnc(Nc4ccccc4)cc3C2)c1 5.03% [at 57.5 µM], O=C(Cc1c[nH]c2ncc(-c3cccnc3)cc12)NC1CCC1 23.7% [at 57.5 µM], O=C(Cc1c[nH]c2ncc(-c3ccccc3)cc12)Nc1cccnc1 6.69% [at 57.5 µM], O=C(c1ccc(N2CC3CC(C2)[C@H]2CCCC(=O)N2C3)nc1)N1CCN(c2cccc(Cl)c2)CC1 (stereo partly drawn) 4.67%, O=C(Cc1c[nH]c2ncc(-c3cccnc3)cc12)NCCc1ccccn1 -11.2% [at 57.5 µM]
